# PubChem BioAssay AID2685 (National Center for Advancing Translational Sciences (NCATS), 2010)
# This is one part of the list. Further columns of the screen follow, without active or inactive calls. Most of these compounds were active or inconclusive in the main read-out, so they are no random draw. Potencies come from curve fits of mixed quality, noted in brackets.
# Assay: qHTS Assay for Lipid Storage Modulators in Drosophila S3 Cells;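 for cell number change: cells counted by Cell Tracker Red CMTPX staining in the red channel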
# Conditions: BODIPY lipid droplet fluorescence, 18-24 h; for cell number change: measured here: cell count max response, cells fed with added oleic acid
# Summary of the method: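 Drosophila S3 cells got compounds at several concentrations plus oleic acid (400 uM solution). Laser-scanning cytometry with 488 nm excitation read lipid droplets at 500-530 nm and cells at 575-640 nm. Percent activity was relative to 20 uM Triacsin C.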
# [1] = measured here: cell number channel AC50, cells fed with added oleic acid
# [2] = measured here: lipid fluorescence (Fed channel) AC50, cells fed with added oleic acid
SMILES,cell number change [%],AC50 [1],AC50 [2]
CC(C)OCC(O)CN (centres undefined),-1.21,–,–
O=C1CCCN1CCCNC(=S)Nc1ccc(Nc2ccccc2)cc1,-32.4,–,–
COc1ccc(N2CCN(C(CNC(=O)c3cccs3)c3ccco3)CC2)cc1 (centres undefined),50,"4.11 µM [rising, full curve]","18.4 µM [rising, single point]"
COc1ccc2nc(NC(=O)CSc3nc(C)cc(C)n3)sc2c1,-15.1,–,"0.517 µM [rising, full curve, poor fit]"
CC(=O)OC(C(=O)NC1CCCCC1)c1ccccc1 (centres undefined),5.7,–,–
CCCCc1cc(=O)oc2cc(C)cc(OCC(=O)N[C@@H](CSCc3ccccc3)C(=O)O)c12,-12.7,–,"2.91 µM [falling, single point]"
COc1cccc(NC(=O)CSc2nnc(NC(=O)C3CC3)s2)c1,17.1,–,–
CN(C)/C=C/C(=O)c1ccc(Oc2ncccn2)cc1,111,"1.84 µM [falling, partial curve]",–
CC(C(=O)O)N1C(=O)CSc2ncccc21 (centres undefined),-18.4,–,"7.31 µM [falling, partial curve, poor fit]"
CC(=O)NCCC1CCCCN1C(=O)c1cc(COc2cc(C)ccc2C)on1 (centres undefined),–,"6.51 µM [rising, single point]","29.1 µM [rising, single point]"
O=C(COCc1cc(-c2ccc3c(c2)OCO3)on1)Nc1cccnc1,–,–,"0.58 µM [rising, single point]"
CN1CCN(C(=S)Nc2ccc(Oc3ccccc3)cc2)CC1,-7.21,"1.03 µM [rising, single point]",–
COc1cccc(CN(Cc2cccnc2)S(=O)(=O)c2ccc(-n3cnnn3)c(C)c2)c1OC,20.6,"0.82 µM [rising, full curve, poor fit]","2.06 µM [rising, partial curve]"
COc1ccc(C(=O)Nc2ccc(NC(=O)c3cccs3)cn2)cc1,–,–,"18.4 µM [falling, single point]"
Cc1ccc(NC(=S)NCc2ccc(Cl)cc2)c(OC(F)F)c1,25.4,–,"0.731 µM [rising, full curve]"
CC(=O)c1cccc(N(CC(=O)NC2CCCC2)C(=O)CNC(=O)c2cccs2)c1,7.39,–,–
COc1ccc(N(CC(=O)NC2CC3CCC2C3)S(=O)(=O)c2ccccc2)cc1OC (centres undefined),23.5,–,–
Cc1ccc(CN(C)C(=O)CCc2c[nH]c3ccccc23)o1,22.6,"6.51 µM [rising, partial curve, poor fit]","6.51 µM [rising, single point]"
CCOC(=O)CNC(=O)N1CCCC(C(=O)c2cccc(Cl)c2)C1 (centres undefined),3.38,–,"4.11 µM [falling, single point]"
O=c1[nH]c(C2CCN(S(=O)(=O)c3ccc(S(=O)(=O)NC4CC4)cc3)CC2)nc2c1nnn2Cc1ccc(F)cc1,-23.1,–,"29.1 µM [rising, single point]"
COc1ccc(C2(CN(C(C)=O)C(C)=O)CCCC2)cc1OC,1.31,–,–

# 7 entries from above in a different format:
SMILES | cell number change [%] | AC50 [1] | AC50 [2]
COc1ccc(N2CCN(C(CNC(=O)c3cccs3)c3ccco3)CC2)cc1 (centres undefined) | 50 | 4.11 µM [rising, full curve] | 18.4 µM [rising, single point]
CC(C(=O)O)N1C(=O)CSc2ncccc21 (centres undefined) | -18.4 | – | 7.31 µM [falling, partial curve, poor fit]
O=C(COCc1cc(-c2ccc3c(c2)OCO3)on1)Nc1cccnc1 | – | – | 0.58 µM [rising, single point]
CN1CCN(C(=S)Nc2ccc(Oc3ccccc3)cc2)CC1 | -7.21 | 1.03 µM [rising, single point] | –
Cc1ccc(NC(=S)NCc2ccc(Cl)cc2)c(OC(F)F)c1 | 25.4 | – | 0.731 µM [rising, full curve]
CC(=O)c1cccc(N(CC(=O)NC2CCCC2)C(=O)CNC(=O)c2cccs2)c1 | 7.39 | – | –
COc1ccc(N(CC(=O)NC2CC3CCC2C3)S(=O)(=O)c2ccccc2)cc1OC (centres undefined) | 23.5 | – | –

# Additional results follow:

SMILES,cell number change [%],AC50 [1],AC50 [2]
O=C(c1cc([N+](=O)[O-])ccc1N1CCOCC1)N1CCCCC1,-24.8,–,"2.31 µM [falling, full curve]"
COc1ccc2c(c1)C(C)CC(C)(C)N2C(=O)CSc1nc2ccccc2s1 (centres undefined),42.7,"13 µM [rising, partial curve]","2.59 µM [rising, full curve, poor fit]"
O=S(=O)([O-])C/C(=C\c1ccc(Cl)cc1)c1cc[n+](CCO)cc1,-49.5,"29.1 µM [falling, single point]","8.2 µM [falling, single point]"
CCOC(=O)COc1c(Br)cc(/C=C2\SC(=O)N(CC(=O)N3CCCC3)C2=O)cc1OC,12.4,–,–
O=C1[C@@H]2C3C=CC(O3)[C@@H]2C(=O)N1c1ccccc1,19.4,"6.51 µM [falling, single point]","6.51 µM [falling, single point]"
Cc1c(C(=O)N2CCCCC2)c(S(=O)(=O)N2c3ccccc3CC2C)c(C)n1C (centres undefined),–,–,"29.1 µM [rising, single point]"
CC(C)(C)c1ccc(C(=O)NCCN2CCCC2)cc1,-9.51,–,"4.61 µM [falling, full curve, poor fit]"
COc1ccc(CN2CCn3ncc(C(=O)Nc4ccc(Cl)cc4Cl)c3C2=O)cc1,18.5,–,–
CCOC(=O)N1CCN(C(=O)CSc2nnc(Cc3cccn3C)n2CCc2ccccc2)CC1,103,"6.51 µM [falling, single point]","9.2 µM [rising, partial curve]"
O=C(CSc1nc2ccc([N+](=O)[O-])cc2[nH]1)c1ccc(Cl)cc1,17.5,–,–
Cc1ccc(N(Cc2ccccc2)C(=O)c2ccc(F)cc2)cc1,35.1,"16.4 µM [rising, partial curve, poor fit]",–
O=C(Nc1ccccc1OC(F)F)c1ccc(Br)o1,–,–,"6.51 µM [falling, single point]"
COc1ccc2nc(NC(=O)C3CCCN(S(=O)(=O)c4cccs4)C3)sc2c1 (centres undefined),-80.5,"18.4 µM [falling, single point]",–
CCOC(=O)Cc1nc2ccccc2o1,30.6,"29.1 µM [rising, single point]","3.66 µM [rising, single point]"
O=C(Nc1ccccn1)c1ccc(Br)s1,17.6,–,–
COCC(C)n1c(COc2ccccc2F)nnc1SCC(=O)c1c(N)n(C)c(=O)n(C)c1=O (centres undefined),-73,"29.1 µM [falling, single point]","29.1 µM [falling, partial curve]"
CC(C)(C)n1ncc2c(=O)n(CC(=O)OCc3ccccc3)cnc21,25.6,–,–
CCCCNC(=O)c1cccnc1SCC(=O)Nc1ccccc1OC,19.5,–,"0.517 µM [rising, full curve]"
COc1ccc(N2CC(C(=O)Nc3nnc(SCC(=O)N4CCCC4)s3)CC2=O)cc1 (centres undefined),22,–,–
COCCCNC(=O)C(=O)NCC(c1ccco1)N1CCN(c2ccc(OC)cc2)CC1 (centres undefined),12.8,–,"6.51 µM [falling, single point]"
